Measured data: PubChem BioAssay AID493246 (Drosophila RNAi Screening Center, 2011)

Assay: 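Identify essential fly genes by loss of cell viability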 (primary screen)
System: Drosophila Kc and S2R+ cells
Reagent: long dsRNA against Drosophila genes
Measurement: 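Raw, unnormalised count of remaining cells in each well; per-plate z-scores of cell number underlie the calls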
Reading the numbers: Kc cell number and S2R+ cell number: higher = more cells remaining
Hit rule: 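Active when the per-plate z-score of cell number is 3 or more in the direction of fewer cells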
In all, the deposit lists about 21,000 reagents; below is an unselected part of those that have a named target and a result. In the full data, 429 (2%) were called active. 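Values are raw and not normalised between plates; calls rest on per-plate z-scores that were not deposited.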 Not given: the amount of reagent, the time to read-out.

Or22b (Odorant receptor 22b) [DRSC00765]
- Kc cell number, rep 1: 1.58e6
- Kc cell number, rep 2: 1.63e6
- S2R+ cell number, rep 1: 1.16e6
- S2R+ cell number, rep 2: 1.29e6
- Call: inactive

Ctl2 (Choline transporter-like 2) [DRSC14423]
- Kc cell number, rep 1: 5.31e5
- S2R+ cell number, rep 1: 7.64e5
- Call: inactive

CCHa2-R (CCHamide-2 receptor) [DRSC04825]
- Kc cell number, rep 1: 1.57e6
- Kc cell number, rep 2: 1.73e6
- S2R+ cell number, rep 1: 9.67e5
- S2R+ cell number, rep 2: 1.07e6
- Call: inactive

CCHa2-R (CCHamide-2 receptor) [DRSC04870]
- Kc cell number, rep 1: 1.52e6
- Kc cell number, rep 2: 1.57e6
- S2R+ cell number, rep 1: 1.24e6
- S2R+ cell number, rep 2: 1.54e6
- Call: inactive

CCHa2-R (CCHamide-2 receptor) [DRSC04871]
- Kc cell number, rep 1: 1.56e6
- Kc cell number, rep 2: 1.58e6
- S2R+ cell number, rep 1: 1.24e6
- S2R+ cell number, rep 2: 1.41e6
- Call: inactive

magu [DRSC06832]
- Kc cell number, rep 1: 1.26e6
- Kc cell number, rep 2: 1.35e6
- S2R+ cell number, rep 1: 1.16e6
- S2R+ cell number, rep 2: 1.22e6
- Call: inactive

Next part; the last 2 above are carried over.
CCHa2-R (CCHamide-2 receptor) [DRSC04871]
- Kc cell number, rep 1: 1.56e6
- Kc cell number, rep 2: 1.58e6
- S2R+ cell number, rep 1: 1.24e6
- S2R+ cell number, rep 2: 1.41e6
- Call: inactive

magu [DRSC06832]
- Kc cell number, rep 1: 1.26e6
- Kc cell number, rep 2: 1.35e6
- S2R+ cell number, rep 1: 1.16e6
- S2R+ cell number, rep 2: 1.22e6
- Call: inactive

CG7309 [DRSC03045]
- Kc cell number, rep 1: 1.53e6
- Kc cell number, rep 2: 1.55e6
- S2R+ cell number, rep 1: 1.18e6
- S2R+ cell number, rep 2: 1.28e6
- Call: inactive

CG8407 [DRSC07167]
- Kc cell number, rep 1: 1.85e6
- Kc cell number, rep 2: 1.79e6
- S2R+ cell number, rep 1: 1.43e6
- S2R+ cell number, rep 2: 1.56e6
- Call: inactive

CAH2 (Carbonic anhydrase 2) [DRSC10746]
- Kc cell number, rep 1: 1.27e6
- Kc cell number, rep 2: 1.37e6
- S2R+ cell number, rep 1: 1.29e6
- S2R+ cell number, rep 2: 1.30e6
- Call: inactive

CG34429 [DRSC10120]
- Kc cell number, rep 1: 1.26e6
- Kc cell number, rep 2: 1.40e6
- S2R+ cell number, rep 1: 1.39e6
- S2R+ cell number, rep 2: 1.52e6
- Call: inactive

Rad60 [DRSC15580]
- Kc cell number, rep 1: 1.77e6
- Kc cell number, rep 2: 1.70e6
- S2R+ cell number, rep 1: 1.03e6
- S2R+ cell number, rep 2: 1.17e6
- Call: inactive

betaTub65B (beta-Tubulin at 65B) [DRSC11393]
- Kc cell number, rep 1: 1.44e6
- Kc cell number, rep 2: 1.21e6
- S2R+ cell number, rep 1: 1.17e6
- S2R+ cell number, rep 2: 1.18e6
- Call: inactive

CG6683 [DRSC10694]
- Kc cell number, rep 1: 1.32e6
- Kc cell number, rep 2: 1.40e6
- S2R+ cell number, rep 1: 1.23e6
- S2R+ cell number, rep 2: 1.15e6
- Call: inactive

AstC (Allatostatin C) [DRSC02403]
- Kc cell number, rep 1: 1.50e6
- Kc cell number, rep 2: 1.61e6
- S2R+ cell number, rep 1: 1.18e6
- S2R+ cell number, rep 2: 1.31e6
- Call: inactive
